PubChem BioAssay AID504786 | Drosophila RNAi Screening Center, 2011

- Purpose: 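Fly genes required for HIF-dependent transcription when hypoxia is mimicked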 (primary screen)
- Cell system: Drosophila S2 cells with a stable HIF luciferase reporter
- Reagents: long dsRNA against Drosophila genes, about 0.2 µg dsRNA per well of a 384-well plate
- Time to read-out: three days of knock-down, then 20 h of DFO before reading
- Treatment: desferrioxamine (DFO) at 100 µM, an iron chelator that mimics hypoxia, for 20 h
- Read-out: 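HIF reporter luminescence in cells given 100 µM DFO for 20 h, using the mouse ldh-a hypoxia-response element, scored as per-plate z-scores; higher means greater loss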
- Direction: z-score: higher = stronger loss of HIF reporter signal
The screen tested about 21,000 reagents; shown is a random part of those with a known target gene and a result. 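Primary screen; positive scores mean lost reporter signal, so the sign may be inverted from the usual convention.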 Reagents against one gene are numbered here. A plus sign joins genes that one reagent is predicted to hit.

With knock-down of CG5569 (GeneID 37783), the record shows z-score, replicate 1 = -0.4; z-score, replicate 2 = -0.2.
Silencing of MFS18 (GeneID 33650) came out at: z-score, replicate 1 = -0.2; z-score, replicate 2 = 0.
CG33263 (GeneID 2768952) scored z-score, replicate 1 = -0.2; z-score, replicate 2 = -0.2.
For CG4607 (GeneID 31653) the deposit lists z-score, replicate 1 = -0.3; z-score, replicate 2 = -0.5.
TTLL5 (GeneID 43015) gave z-score, replicate 1 = -0.2; z-score, replicate 2 = 0.
For eEF5 (GeneID 37846), the entry reads z-score, replicate 1 = 4.8; z-score, replicate 2 = 4.5.
Depletion of ChLD3 (GeneID 35002) resulted in: z-score, replicate 1 = -0.3; z-score, replicate 2 = -0.3.
With knock-down of tacc (GeneID 40589) #1, the screen gave z-score, replicate 1 = 0; z-score, replicate 2 = 0.6.
tacc (GeneID 40589) #2 gave z-score, replicate 1 = -0.3; z-score, replicate 2 = -0.3.
Silencing of Bcat (GeneID 32297) came out at: z-score, replicate 1 = -0.2; z-score, replicate 2 = -0.5.
Depletion of CG42331 (GeneID 42948) #1 gave: z-score, replicate 1 = 0.9; z-score, replicate 2 = 1.4.
For CG42331 (GeneID 42948) #2, the values are z-score, replicate 1 = -0.1; z-score, replicate 2 = 1.5.
For CG10466 (GeneID 35268), the entry reads z-score, replicate 1 = -0.4; z-score, replicate 2 = 0.3.

2 neighbouring reagents already listed, quoted:
CG5569 (GeneID 37783): z-score, replicate 1 = -0.4; z-score, replicate 2 = -0.2
MFS18 (GeneID 33650): z-score, replicate 1 = -0.2; z-score, replicate 2 = 0

Further records follow:
Ac78C (GeneID 40333) #1 scored z-score, replicate 1 = -0.2; z-score, replicate 2 = -0.6.
Ac78C (GeneID 40333) #2 scored z-score, replicate 1 = -0.3; z-score, replicate 2 = -0.4.
For Ac78C (GeneID 40333) #3 the deposit lists z-score, replicate 1 = -0.1; z-score, replicate 2 = 0.
Against CG18324 (GeneID 36568), the entry reads z-score, replicate 1 = -0.4; z-score, replicate 2 = -0.5.
Against CG14302 (GeneID 42252), the entry reads z-score, replicate 1 = -1.2; z-score, replicate 2 = -0.2.
Silencing of Rcd1 (GeneID 36560) came out at: z-score, replicate 1 = 0.5; z-score, replicate 2 = 0.7.
CG4853 (GeneID 36974) scored z-score, replicate 1 = -0.2; z-score, replicate 2 = -0.2.
Silencing of CG11686 (GeneID 50024) gave: z-score, replicate 1 = -0.3; z-score, replicate 2 = -1.3.
Against elm (GeneID 40695) the deposit lists z-score, replicate 1 = -0.4; z-score, replicate 2 = -0.4.
Against EMC2B + EMC2A the deposit lists z-score, replicate 1 = -0.1; z-score, replicate 2 = -0.2.
Against CG8209 (GeneID 38888), the entry reads z-score, replicate 1 = -0.4; z-score, replicate 2 = -0.1.
Silencing of Rbp1-like (GeneID 32293) gave: z-score, replicate 1 = -0.3; z-score, replicate 2 = -0.9.
Pcmt (GeneID 40668) showed z-score, replicate 1 = -0.4; z-score, replicate 2 = 0.1.
CG4613 (GeneID 39586) showed z-score, replicate 1 = -0.2; z-score, replicate 2 = -0.4.
Knock-down of Drsl2 (GeneID 38408) resulted in: z-score, replicate 1 = -0.1; z-score, replicate 2 = -0.9.
Silencing of CG34187 (retired record) (GeneID 5740579) came out at: z-score, replicate 1 = -0.1; z-score, replicate 2 = -0.1.
With knock-down of mthl10 (GeneID 38057) #1, the record shows z-score, replicate 1 = -0.4; z-score, replicate 2 = -0.7.
Knock-down of mthl10 (GeneID 38057) #2 gave: z-score, replicate 1 = -0.4; z-score, replicate 2 = -0.4.
Miro (GeneID 42845) gave z-score, replicate 1 = -0.1; z-score, replicate 2 = -0.4.
Against Acer (GeneID 34189), the entry reads z-score, replicate 1 = -0.3; z-score, replicate 2 = -0.5.
Depletion of CG40498 (GeneID 3354890) gave: z-score, replicate 1 = -0.2; z-score, replicate 2 = -0.2.
Depletion of sesB (GeneID 32007) gave: z-score, replicate 1 = 1; z-score, replicate 2 = -0.2.
Depletion of CG4849 (GeneID 43358) came out at: z-score, replicate 1 = 3.8; z-score, replicate 2 = 5.
After knock-down of CG12278 (GeneID 42486) the results were z-score, replicate 1 = 2.9; z-score, replicate 2 = 0.9.
Ugt304A1 (GeneID 53501) showed z-score, replicate 1 = -0.2; z-score, replicate 2 = 0.4.
With knock-down of CG3776 (GeneID 37996), the record shows z-score, replicate 1 = -0.2; z-score, replicate 2 = 0.1.
Silencing of PPO2 (GeneID 35910) gave: z-score, replicate 1 = -0.3; z-score, replicate 2 = -0.2.
